The source of these data is PubChem BioAssay AID540335 (Broad Institute, 2011).

Screen size: about 1,300 compounds; about 270 (21%) were called active.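 Rule for the calls: active = dose-dependent rise or fall in viability, either side of zero, with half-maximal concentration at or below a set limit; inconclusive = flat curve at 30 to 70% viability loss, or poor fit; inactive = flat within 30% either way, or potency beyond limit.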 Some of the results follow. Results with a measured potency or affinity are listed apart.

The nature of the assay: A375 melanoma cell viability reduction, dose response, counter-screen for MITF modulator project, cherry-pick samples, set 2 (AID 540335).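 Note: A375 human melanoma cells which do not depend on MITF; 0% = median of neutral control wells and 100% = double that signal.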 The settings on record: CellTiter-Glo ATP luminescence, 24 h; at 35 µM (top of the series).
In the case of `Cc1cc(C(=O)Nc2ccccc2)nn1C(C)(C)C`, the activity change, negative = decreased viability is inactive: 3.82%. The result for `CC[n+]1c(-c2ccccc2)c2cc(N)ccc2c2ccc(N)cc21` reads inactive: -32.4%; that for `CN1C(=O)/C(=C/c2cccn2-c2ccc3ccccc3c2)C(=O)NC1=S`, inactive: 7.08%; that for `O=C1NC(=O)N(Cc2ccccc2Cl)C(=O)/C1=C/c1cccs1`, inactive: -13.7%. For `O=C1NC(=O)N(Cc2ccc(F)cc2)C(=O)/C1=C\C=C\c1ccco1` the value was inactive: 28.1%; for `CC[n+]1c(/C=C/N(C)c2ccccc2)sc2ccc(Cl)cc21`, inactive: -15.9%.

`S=C=Nc1cccc(C2(N3CCCCC3)CCCCC2)c1`: the activity change, negative = decreased viability is inactive: -30.9%.

Turning to `Cc1ccc(N2C(=O)NC(=O)/C(=C\C=C\c3ccco3)C2=O)cc1`, the activity change, negative = decreased viability was inactive: 18.4%.

Turning to `O=c1[nH]c(=S)[nH]c(O)c1N=Nc1ccc(S(=O)(=O)N2CCc3ccccc32)cc1`, the activity change, negative = decreased viability is inactive: 5.93%.

As for `COc1ccc(-c2cc(-c3ccccc3)[n+](C)c(-c3ccccc3)c2)cc1`, the activity change, negative = decreased viability was inactive: -9.24%. As to `Cc1cc(C(=O)Nc2ccc3c(c2)OCCO3)nn1C(C)(C)C`, the activity change, negative = decreased viability was inactive: -4.89%. The result for `COc1cc2c(cc1/C=C/[N+](=O)[O-])OCO2` reads inactive: -38.5%; that for `O=c1c2ccccc2nc(/C=C/c2ccc([N+](=O)[O-])o2)n1-c1ccc(O)cc1`, inactive: -7.41%; that for `CCCCCn1c(=O)c(C(=O)Nc2cnccn2)c(O)c2ccccc21`, inactive: -3.94%. In the case of `CCOC(=O)c1c(-n2c(C)cc(C=C3C(=O)NC(=S)NC3=O)c2C)sc2c1CCCC2`, the activity change, negative = decreased viability is inactive: 9.13%. The result for `C=CCN1C(=O)NC(=O)/C(=C/C=C/c2ccccc2)C1=O` reads inactive: 45.4%; that for `Cc1cc(C)cc(N2C(=O)NC(=O)/C(=C\c3cccn3-c3ccccc3)C2=O)c1`, inactive: -17.3%; that for `O=C1NC(=O)C(=Cc2ccc(-c3ccc(Cl)cc3)o2)C(=O)N1`, inactive: 6.73%. For `CCOc1ccc(-c2cc(C)[n+](CCO)c(-c3ccc(OCC)cc3)c2)cc1` the value was inactive: 5.2%; for `O=C1NC(=O)C(=Cc2ccc(-c3cc(Cl)ccc3[N+](=O)[O-])o2)C(=O)N1`, inactive: 10.4%; for `C=CCN1C(=O)/C(=C/c2cc(C)n(-c3cccnc3)c2C)C(=O)NC1=S`, inactive: -15.1%.

Turning to `CC(C)n1c(O)c(C2c3cc(Cl)ccc3Oc3[nH]c(=O)n(C(C)C)c(=O)c32)c(=O)[nH]c1=O` (stereo not given), the activity change, negative = decreased viability was inactive: 40.4%. The result for `CN(C)c1ccc(/C=C2/C(=N\O)C3CCN2CC3)cc1` reads inactive: 6.95%; that for `O=C1NC(=O)N(Cc2ccccc2)C(=O)/C1=C/C=C/c1ccco1`, inactive: 57.1%; that for `COc1ccc(Oc2cc(NC(=O)c3nn(C)cc3[N+](=O)[O-])cc([N+](=O)[O-])c2)cc1`, inactive: 9.82%. The result for `O=C1NC(=S)NC(=O)C1=Cc1cccn1-c1ccc(O)cc1` reads inactive: -17.4%; that for `Cc1ccc(N2C(=O)NC(=O)/C(=C/C=C/c3ccco3)C2=O)cc1`, inactive: 69%. For `CCCCCCn1c(=O)c(C(=O)Nc2cnccn2)c(O)c2ccccc21` the value was inactive: -13.2%; for `Cc1ccc(C(O)(c2ccc(C)c(C)c2)C2CN3CCC2CC3)cc1C` (stereo not given), inactive: -75.9%; for `Cc1cccc(N2C(=O)NC(=O)/C(=C\c3cccn3-c3ccc(Cl)cc3)C2=O)c1`, inactive: -12.1%. Consider `CC(C)c1oc(=O)cc2c1[C@@H](O)[C@H]1OC(=O)[C@@]3(C)C[C@@H](O)[C@@H](O)[C@@]2(C)C13` (stereo not given in full), for which the activity change, negative = decreased viability was inactive: -31.9%. For `C/C(=C\c1ccc(N(C)C)cc1)[N+](=O)[O-]` the value was inactive: 3.02%; for `CC(C)N1C(=O)/C(=C/C=C/c2ccco2)C(=O)N(Cc2ccco2)C1=O`, inactive: -4.9%. For `Cc1ccc(-c2cc(-c3ccc(C)cc3)[n+](C)o2)cc1` the value was inactive: -12%.

Take `NC(Cc1nc2ccccc2[nH]1)c1ccc(Cl)cc1` (stereo not given): the activity change, negative = decreased viability is inactive: 4.21%.
